PubChem BioAssay AID1224830 – NIAID | 2016
Aim: 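Host factors that control LPS-induced TNF expression in human macrophages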 (primary screen). Cells: human THP-1 monocytic leukaemia cells, TNF dual-luciferase reporter clone, PMA-differentiated to macrophage-like cells. Reagents: siRNA pool against human genes, 50 nM. Duration: LPS for 4 h, given about 3 days after siRNA transfection. Treatment: bacterial LPS (TLR4 ligand), 10 ng/ml. Read-out: 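Ratio of firefly to renilla light, scaled to the plate median and expressed as a robust z-score per replicate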. Reading the numbers: TNF reporter robust z-score: higher = stronger TNF reporter response to LPS. Rule for the call: 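Each well counts as active if its z-score is over 2.8 or under -1.5; controls are left without a call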.
Here is an unselected part of about 18,000 reagents. Over the whole deposit, about 2,900 (16%) were called active. 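Calls are made per well; low scores hint the gene aids the LPS response, high scores that it dampens it.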 A number with no mark means an inactive call. Repeated entries: four replicate wells of each siRNA pool.

GOLPH3: TNF reporter robust z-score = 0.73
GOLPH3: TNF reporter robust z-score = 0.38
GOLPH3: TNF reporter robust z-score = 0.21
GOLPH3: TNF reporter robust z-score = 1.13
CFAP410: TNF reporter robust z-score = -1.61 (active)
CFAP410: TNF reporter robust z-score = -1.51 (active)
CFAP410: TNF reporter robust z-score = -0.52
CFAP410: TNF reporter robust z-score = -1.06
POM121L12: TNF reporter robust z-score = -0.89
POM121L12: TNF reporter robust z-score = -0.43
POM121L12: TNF reporter robust z-score = -0.36
POM121L12: TNF reporter robust z-score = -0.35
PGM5: TNF reporter robust z-score = -0.02
PGM5: TNF reporter robust z-score = 0.58
PGM5: TNF reporter robust z-score = -1.15
PGM5: TNF reporter robust z-score = -1.01
RNPC3: TNF reporter robust z-score = -1.42
RNPC3: TNF reporter robust z-score = -0.23
RNPC3: TNF reporter robust z-score = 0.11
RNPC3: TNF reporter robust z-score = 0.63

Laid out differently: results already given
target gene	TNF reporter robust z-score
GOLPH3	1.13
CFAP410	-1.61 (active)
CFAP410	-1.51 (active)
CFAP410	-0.52
CFAP410	-1.06

Further results:
MFHAS1: TNF reporter robust z-score = -1.72 (active)
MFHAS1: TNF reporter robust z-score = -1.35
MFHAS1: TNF reporter robust z-score = -0.37
MFHAS1: TNF reporter robust z-score = 0.22
H2BC3: TNF reporter robust z-score = -0.53
H2BC3: TNF reporter robust z-score = 0
H2BC3: TNF reporter robust z-score = -0.86
H2BC3: TNF reporter robust z-score = -0.45
GADD45G: TNF reporter robust z-score = 0.34
GADD45G: TNF reporter robust z-score = 0.07
GADD45G: TNF reporter robust z-score = 0.33
GADD45G: TNF reporter robust z-score = -0.49
CYP2D6: TNF reporter robust z-score = 1.6
CYP2D6: TNF reporter robust z-score = 0.43
CYP2D6: TNF reporter robust z-score = 0.03
CYP2D6: TNF reporter robust z-score = 1.05
BPI: TNF reporter robust z-score = -0.52
BPI: TNF reporter robust z-score = -0.03
BPI: TNF reporter robust z-score = -0.57
BPI: TNF reporter robust z-score = -1.12
CHCT1: TNF reporter robust z-score = -1.15
CHCT1: TNF reporter robust z-score = -1.04
CHCT1: TNF reporter robust z-score = -0.6
CHCT1: TNF reporter robust z-score = -1.2
B3GLCT: TNF reporter robust z-score = -1.71 (active)
B3GLCT: TNF reporter robust z-score = -1.69 (active)
B3GLCT: TNF reporter robust z-score = -1.8 (active)
B3GLCT: TNF reporter robust z-score = -1.89 (active)
NUDT21: TNF reporter robust z-score = 0.59
NUDT21: TNF reporter robust z-score = 2.3
NUDT21: TNF reporter robust z-score = 1.14
NUDT21: TNF reporter robust z-score = 0.25
ZFP82: TNF reporter robust z-score = 0.41
ZFP82: TNF reporter robust z-score = 0.94
ZFP82: TNF reporter robust z-score = 1.75
ZFP82: TNF reporter robust z-score = 2.42
LRRFIP2: TNF reporter robust z-score = 4.61 (active)
LRRFIP2: TNF reporter robust z-score = 0.76
LRRFIP2: TNF reporter robust z-score = 2.41
LRRFIP2: TNF reporter robust z-score = 1.2
